Binding data for one molecule are collected here from paper PMC7900238, “A meet-up of two second messengers: the c-di-AMP receptor DarB controls (p)ppGpp synthesis in Bacillus subtilis” (Nature Communications, 2021).

These are yes or no findings as the source states them, for the method shown. Some binding calls cover weakened binding; strength is not graded here. Tags and fused reporters may be left off the sequences shown.

The experiment deals with DarB fused to the T18 or T25 domain of CyaA (BACTH) (B. subtilis 168) (UniProt O31698). Nature of the experiment: two-hybrid; bacterial two-hybrid (BACTH), N- and C-terminal fusions to T18 or T25 of CyaA, E. coli BTH101, X-Gal plates, up to 36 h at 28 °C.

B1: DarB fused to the T18 or T25 domain of CyaA (BACTH) (protein, UniProt O31698 2-147)
chain: ISLQSDQLLEATVGQFMIEADKVAHVQVGNNLEHALLVLTKTGYTAIPVLDPSYRLHGLIGTNMIMNSIFGLERIEFEKLDQITVEEVMLTDIPRLHINDPIMKGFGMVINNGFVCVENDEQVFEGIFTRRVVLKELNKHIRSLNK
For B1, the binding result is given as “binds”.
